Experimental data: PubChem BioAssay AID743255 (National Center for Advancing Translational Sciences (NCATS), 2014)
Values joined by “and” are separate entries in the source; they are usually repeats but may differ in a detail not shown here. Equal values may be shown once. Among all 390,000 compounds or so, about 910 (0.23%) were called active. Inconclusive results, whose numbers are uncertain, are shown with a selection of clear calls. The call rests on the fitted dose curve; in most records, active means well fitted inhibition curve with a large enough effect; inconclusive means small, poorly fitted or top-dose-only effect; inactive means no such curve, though single readings can be large or run the other way. Where the call is inconclusive, the potency comes from a doubtful curve fit.

Sequences of proteins named here, by UniProt entry; tags and fusion partners are left off. A change or cut given only in a name is not applied to a line headed by its entry.
UniProt O94782: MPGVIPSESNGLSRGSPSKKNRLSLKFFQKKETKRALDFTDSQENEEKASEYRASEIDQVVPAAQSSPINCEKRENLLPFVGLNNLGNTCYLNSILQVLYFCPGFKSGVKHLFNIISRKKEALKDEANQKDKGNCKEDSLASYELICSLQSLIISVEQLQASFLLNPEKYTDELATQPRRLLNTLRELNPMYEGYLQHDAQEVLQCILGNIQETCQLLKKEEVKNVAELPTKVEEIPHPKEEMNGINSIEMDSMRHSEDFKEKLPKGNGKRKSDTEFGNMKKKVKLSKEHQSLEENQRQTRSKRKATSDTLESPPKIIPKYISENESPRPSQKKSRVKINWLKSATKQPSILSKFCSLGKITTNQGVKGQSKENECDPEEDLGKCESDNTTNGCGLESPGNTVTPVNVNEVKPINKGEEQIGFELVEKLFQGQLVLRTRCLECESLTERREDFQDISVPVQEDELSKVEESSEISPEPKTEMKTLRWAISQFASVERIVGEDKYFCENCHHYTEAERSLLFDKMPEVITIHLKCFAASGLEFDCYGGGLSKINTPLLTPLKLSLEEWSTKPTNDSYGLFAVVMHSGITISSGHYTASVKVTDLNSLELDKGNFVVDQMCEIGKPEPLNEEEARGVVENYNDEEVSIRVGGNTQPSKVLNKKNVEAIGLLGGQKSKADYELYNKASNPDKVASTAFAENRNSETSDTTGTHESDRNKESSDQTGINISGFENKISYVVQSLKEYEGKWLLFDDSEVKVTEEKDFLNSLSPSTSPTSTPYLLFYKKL

Target: Ubiquitin carboxyl-terminal hydrolase 1 (Homo sapiens) (UniProt O94782)
Assay: Inhibitors of USP1/UAF1: Primary Screen; further: nearly all actives have a fitted effect of over 60% in size
Details: recombinant USP1/UAF1, Ub-Rhodamine cleavage fluorescence; series mostly up to 57.1 µM
Method in brief: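 1 nM enzyme complex + cpd, 15 min RT; start with Ub-Rho 150nM final; kinetic fluorescence ex 480/em 540, 6 reads q60 s. Buffer 50mM HEPES pH 7.8, 0.5mM EDTA, 0.1 mg/ml BSA, 1mM TCEP, 0.01% Tween-20.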
Potency means the concentration at half of the fitted maximal effect.

Potency, inactive:
Cc1ccc2nc(Cl)c3cc(C(=O)N(C)C4CCCCC4)sc3c2c1, O=C(CSc1ncnc2c1cnn2-c1ccccc1)NC1CCCC1, COc1ccccc1N1CCN(Cc2cc(=O)n3ccsc3n2)CC1, COc1ccc(OC)c(NC(=O)c2cn3c4c(ccc(Cl)c4c2=O)OC(C)C3)c1 (configuration not stated), Cc1cc(C)n(S(=O)(=O)c2cc(C)c(C)cc2C)n1, Cc1c2cnn(-c3ccccc3)c(=O)c2c(C)n1CC(=O)NCc1ccccc1Br, O=C(Nc1nnc(S(=O)(=O)N2CCOCC2)s1)c1cccc(F)c1, Cc1ccc(C2NC(=S)N3C(c4ccc(C)cc4)NC(=S)N23)cc1 (configuration not stated), COc1ccccc1NC(=O)c1c(C)cc(C)nc1SCC(=O)Nc1ccc(C)cc1, CN1CCN(C(=O)CCNC(=O)Cn2cnc3ccccc3c2=O)CC1, O=C(CCc1nc2ccccc2c(=O)[nH]1)Nc1nc(-c2cccs2)cs1, Cc1ccc(C#N)c(SCCN2CCCCC2)n1, O=C(c1ccccc1)c1ccc(OCCCN2CCCC2)cc1, NC(=S)Nc1cccc2cnccc12, O=C(CCCCN1CCCCC1)c1ccc2c(c1)Cc1ccccc1-2

Potency, active:
CC1=CC(=O)Nc2ccccc2S1 22.4 µM

Potency, inconclusive:
O=[N+]([O-])c1ccc(/C=N\N2CCN(Cc3ccccc3Cl)CC2)cc1 11.2 µM [inhibitor, partial curve, poor fit], COc1ccc(N(CC(=O)N2CCCCCC2)S(=O)(=O)c2ccc(OC)c(OC)c2)cc1 0.447 µM [inhibitor, full curve, poor fit], Cn1nc(C(=O)N2CCN(c3cccc(Cl)c3)CC2)c2c1-c1ccccc1S(=O)(=O)C2 5.01 µM [inhibitor, partial curve], C/C(=N/NS(=O)(=O)c1ccc(C(C)(C)C)cc1)c1ccc2c(c1)OCO2 28.2 µM [inhibitor, partial curve, poor fit], Cc1nc2c(-c3ccccc3)c(C)nn2c(C)c1CCC(=O)N1CCN(c2ccccc2)CC1 17.8 µM [inhibitor, partial curve, poor fit], COc1ccc(C2C3=C(CC(C)(C)CC3=O)N(C)C3=C2C(=O)CC(C)(C)C3)cc1OC 0.398 µM [inhibitor, full curve, poor fit], CC1CCCCC1NC(=O)C(Cc1ccccc1)NS(=O)(=O)c1cccs1 (configuration not stated) 0.708 µM [inhibitor, full curve, poor fit], Cc1ccc(CN2C(=O)c3ccccc3C2C(=O)NCc2cccnc2)cc1 (configuration not stated) 2 µM [inhibitor, full curve, poor fit], Cc1ccccc1C(=O)N1CCN(c2ccc(NC(=O)c3ccc4c(c3)OCO4)cc2)CC1 4.47 µM [inhibitor, full curve], CCS(=O)(=O)N1CCc2cc(C(=O)Nc3ccc(C)c(Cl)c3)ccc21 79.4 µM [inhibitor, partial curve, poor fit], COc1ccc(C(=O)Nc2ccc3nc(SCc4ccc(C)cc4)sc3c2)cc1 31.6 µM [inhibitor, partial curve], C[C@H](NC(=O)c1ncn2c1c(=O)[nH]c1ccc(Br)cc12)c1ccccc1 0.251 µM [inhibitor, full curve, poor fit], Cc1ccc(C(=O)Nc2cccc(C(F)(F)F)c2)cc1NC(=O)c1c[nH]c2cc(C(F)(F)F)ccc2c1=O 7.94 µM [inhibitor, partial curve], Cc1ccc(C)c(N2CCN(C(=O)CCCn3ncn4c(cc5occc54)c3=O)CC2)c1 50.1 µM [inhibitor, partial curve, poor fit], COc1cc(OC)nc(Oc2ccccc2C(=O)Oc2ccc(F)cc2Cl)n1 0.251 µM [inhibitor, full curve, poor fit], Fc1cccc(F)c1-c1nc(-c2ccncc2)no1 44.7 µM [inhibitor, partial curve, poor fit], c1cc(SC2CCCCC2)cc(-c2nc3cnccn3c2NC2CCCCC2)c1 35.5 µM [inhibitor, partial curve, poor fit], COc1ccc(N=Cc2[nH]c3ccccc3c2O)cc1 31.6 µM [inhibitor, single point], O=[N+]([O-])c1ncccc1OCc1ccc(Cl)c(Cl)c1 31.6 µM [inhibitor, single point], CCc1ccc(NC(=O)N2CCN(Cc3nc4ccc(C)cc4o3)CC2)cc1 50.1 µM [inhibitor, partial curve, poor fit], CN(CCOc1ccccc1)CCOc1ccccc1 39.8 µM [inhibitor, single point], O=C(COc1ccccc1Cl)NC(=S)Nc1ccccc1N1CCCC1 7.08 µM [inhibitor, full curve], CC(=C1C(=O)c2ccccc2C1=O)N1CCc2ccccc2C1 0.631 µM [inhibitor, full curve, poor fit], O=C1NC(=S)S/C1=C\c1cccc([N+](=O)[O-])c1 3.98 µM [inhibitor, full curve], CC(C)N(C(=O)[C@H]1CC(CC(=O)NCc2cccc(C(F)(F)F)c2)C(=O)N2CCc3c([nH]c4ccccc34)[C@]12C)C(C)C (some centres not stated) 50.1 µM [inhibitor, partial curve, poor fit], CCOc1ccc(NC(=O)CN2C(=O)c3ccccc3Sc3ccc(C(=O)OC)cc32)cc1 141 µM [inhibitor, partial curve, poor fit], COc1ccc(CN(C(=O)c2cc(=O)c3ccccc3o2)C2CCS(=O)(=O)C2)cc1OC (configuration not stated) 2.51 µM [inhibitor, partial curve], CCCn1c(C(=O)OC)cc2c1ccn2-c1ccc(F)cc1 31.6 µM [inhibitor, partial curve, poor fit], Cc1ccc(C(=O)N2CCN(c3ncnc4c(C)csc34)CC2)cc1 39.8 µM [inhibitor, single point], CCOC(=O)N1CCc2c(sc(NCc3cccs3)c2C(=O)Nc2cc(Cl)ccc2OC)C1 11.2 µM [inhibitor, partial curve, poor fit], CCOC(=O)c1c(NC(=O)c2ccc(S(=O)(=O)N(CC(C)C)CC(C)C)cc2)sc2c1CCN(CC)C2 7.94 µM [inhibitor, full curve, poor fit], CCOC(=O)C1CCN(C(=O)c2sc3ncn(CC(=O)N4CCCCC4)c(=O)c3c2C)CC1 44.7 µM [inhibitor, partial curve], CCOC(=O)Cn1nnnc1C(C(C)C)N(Cc1cccs1)Cc1cc2cc(C)ccc2[nH]c1=O (configuration not stated) 44.7 µM [inhibitor, partial curve], COc1ccc(C)cc1S(=O)(=O)N(C)CC(=O)N1CCC(C(N)=O)CC1 39.8 µM [inhibitor, partial curve, poor fit], COc1ccc(Br)cc1/C=N/NC(=O)c1ccc(OC)c(OC)c1 6.31 µM [inhibitor, single point], Cc1ccc(S(=O)(=O)c2nnn(CC(=O)Nc3ccccc3C)c2N)cc1 8.91 µM [inhibitor, full curve, poor fit], O=C(CSc1ccc2nnc(-c3cccnc3)n2n1)N1CCOCC1 44.7 µM [inhibitor, partial curve, poor fit], Cc1ccc(C(=O)Nn2c(O)c(C=C3N=c4ccccc4=N3)sc2=S)cc1 39.8 µM [inhibitor, partial curve], Cc1cc(C)c(Cn2c(=O)n(Cc3ccccc3)c(=O)c3c(C)c(C)sc32)c(C)c1 56.2 µM [inhibitor, partial curve, poor fit], O=c1[nH]cc(N=Cc2cc(Cl)cc(Cl)c2O)c(=O)[nH]1 44.7 µM [inhibitor, partial curve, poor fit], COc1cc(N2CCC(O)CC2)ccc1Nc1nnc(Cl)c(Nc2ccccc2S(C)(=O)=O)n1 5.62 µM [inhibitor, partial curve, poor fit], COCCNC(=O)Cn1cnc2sc(C)c(S(=O)(=O)N3CCN(c4ccccc4OC)CC3)c2c1=O 35.5 µM [inhibitor, partial curve] and 1.78 µM [inhibitor, partial curve], N#CCC(=N)N1CCN(c2cccc(Cl)c2)CC1 2.51 µM [inhibitor, full curve], CC(C)Cc1nc2oc3c(NCc4cccnc4)ncnc3c2c2c1CCC2 44.7 µM [inhibitor, partial curve], O=C(CCC1CCCN(C(=O)c2cc(F)ccc2F)C1)N1CCN(c2ccccn2)CC1 (configuration not stated) 0.251 µM [inhibitor, full curve, poor fit], CC(=O)c1ccc(NC(=O)CN2CCN(S(=O)(=O)c3ccc4c(c3)OCCO4)CC2)cc1 0.251 µM [inhibitor, full curve, poor fit]
